Experimental data reported in US10696631B2 (priority 2016, dated 2020).

Experiment: MicroPET imaging and biodistribution in U87MG xenografts
Conditions: female, athymic nude, mouse, in vivo; for tissue uptake at 1 h: 1 h p.i.; for tissue uptake at 4 h: 4 h p.i.; for tissue uptake at 24 h: 24 h p.i.
Description: Female athymic nude mice (Harlan Laboratories) were housed in an animal facility under pathogen-free conditions. Tumor model was developed in 5 to 6 weeks old female athymic nude mice by injection of 5×10^6 cells into their right shoulders. The mice underwent small-animal PET studies when the tumor volume reached 300 mm^3 (14-20 days after inoculation), and received ^90Y radionuclide therapy when the tumor volume reached 150 mm^3 (10-14 days after inoculation).
Blood, muscle, bone, liver, kidneys, spleen, intestine, heart and tumor were collected and wet-weighed. […] Radioactivity was measured in a γ-counter. The results were expressed % ID/g.

[1] = tumor uptake with blocking, co-injection of excess c(RGDfk) monomer
[2] = tumor uptake, U87MG xenografts, PET

## Cc1cc(-c2ccc(NC(=O)[C@@H](CCCCNC(=O)CCN3C(=O)CC(SCC(=O)NCCCC[C@H]4NC(=O)[C@H](Cc5ccccc5)NC(=O)[C@H](CC(=O)O)NC(=O)CNC(=O)[C@H](CCCNC(=N)N)NC4=O)C3=O)NC(=O)CN3CCN(CC(=O)O)CCN(CC(=O)O)CC3)c(C)c2)ccc1/N=N/c1ccc2c(S(=O)(=O)O)cc(S(=O)(=O)O)c(N)c2c1O (some centres unmarked) [64Cu-NMEB-RGD, metal not drawn]
[1]
  tissue uptake at 1 h: 5.77 ± 0.08 %ID/g
  tissue uptake at 4 h: 11.1 ± 0.05 %ID/g
[2]
  tissue uptake at 1 h: 9.87 ± 1.4 %ID/g
  tissue uptake at 4 h: 14.1 ± 1.62 %ID/g
  tissue uptake at 24 h: 16.6 ± 1.99 %ID/g
Uptake in the blood
  tissue uptake at 1 h: 9.58 ± 0.84 %ID/g
  tissue uptake at 4 h: 5.73 ± 0.67 %ID/g
  tissue uptake at 24 h: 2.46 ± 0.25 %ID/g
